Library screening results

Source: ChEMBL document CHEMBL3988442, “University of Dundee, Small-Polar-MMV Screening Library” (2021).

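Whole-cell assay for inhibitors of Mycobacterium tuberculosis growth, labelled Cornell in the record; the read-out is not stated. The concentration is filed as 10 mM, unlikely as a test dose, so the dose is not known. The record gives no direction; compounds strong in two other growth screens of this library score well above the rest, so higher reads as stronger inhibition. About 53,000 compounds were tested under these conditions; 1.7% (about 900) showed 50% or more at least once.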

The filed quantity is “Percent Effect” (%).
The controls that fix the scale are not given in the record; negative values are as filed.
The compounds are a random part of those screened.

Cc1nnnn1-c1cc(NCc2cc(C#N)ccc2F)ccc1F gave 29.52%.
COc1cccc(N2CCN(C(=O)c3noc4c3CCCCC4)CC2)c1 gave 44.05%.
O=C(O)C1(Cc2cc(-c3ccc(F)cc3)no2)CCOCC1 gave -49.11%.
O=C(N1CCCC1)N1CCC2(CC1)COCCN(Cc1cccnc1)C2.O=C(O)C(F)(F)F.O=C(O)C(F)(F)F gave 3.961%.
Clc1ccccc1-c1nc(CNC2CCc3ncnn3C2)cs1 (stereo not drawn) gave 10.38%.
CCc1cnc(N2CCN(CC(=O)Nc3c(C)n[nH]c3C)CC2)s1 gave 7.02%.
COCCN1CC(C(=O)NCc2ccnc(-n3cccn3)c2)CC1=O (stereo not drawn) gave -10.15%.
CCc1cc(NCCc2cnccn2)n2nc(C)c(C)c2n1 gave -19.04%.
O=C(O)C(F)(F)F.[H][C@@]12CCCO[C@]1([H])[C@H](NC(=O)c1cnccn1)CN(C1CCCC1)C2 gave 16.6%.
CCNC(=O)CCS(=O)(=O)Cc1ccn(-c2cccc(F)c2)n1 gave -32.14%.
CCOC(C)C(=O)NCCNS(C)(=O)=O (stereo not drawn) gave 13.85%.
CCN(Cc1cnn(C)c1)S(=O)(=O)c1ccc(NC(=O)C(C)(C)C)cc1 gave -7.981%.
Cc1ccc(Cn2nc(C)c3c(C(=O)O)c(Cl)c(C)nc32)cc1 gave 18.47%.
Cc1ncc(S(=O)(=O)N(CC(C)C)c2cccc(O)c2)s1 gave 35.15%.
CNC(=O)c1ccc(OC)c(NCc2noc(-c3ccsc3)n2)c1 gave 1.583%.
Cn1ccnc1COc1ccc(NC(=O)C2CCCO2)cc1 (stereo not drawn) gave 5.606%.
COC(=O)CN1CC(c2nc(Cc3ccccc3)no2)C1.O=C(O)C(=O)O gave 30.23%.
Cc1ccc(C(=O)O)cc1S(=O)(=O)N(C)c1cccc(C#N)c1 gave 11.11%.
CCN1CCOC(CNCc2ccc(OC)c(F)c2)C1 (stereo not drawn) gave 16.22%.
CC(C)NC(=O)N1CCOC2(CCCN(c3ncccc3F)C2)C1.O=C(O)C(F)(F)F (stereo not drawn) gave 13.24%.
O=C(NCCN1CCOCC1)c1scnc1Cl gave -32.02%.
NC(=O)NC(=O)Cn1ccc2sccc2c1=O gave -21.94%.
N#Cc1cccc(N2CCOCC3(CCCN(C(=O)NC4CC4)C3)C2)c1 (stereo not drawn) gave 16.43%.
Cc1cc(N2CCN(C3CCSCC3)CC2)n2nc(C)c(C)c2n1 gave 4.678%.
COc1cccc2c(=O)n(Cc3ccnc(C)c3)cnc12 gave -4.209%.